# Experimental data published in the supplement of paper PMC8728848.
# The other results are listed elsewhere or left out.
# B1: GS7807I-bvu-563-22-563 (Bacteroides vulgatus) (protein)
# chain: IFSSCTDDFEKLNTSNIQVDPADLPFAAQCTEPMTYCYPPQQNMFQFWTNLTIDLYGGYFMTPNGNFTNGDMGENRGHSGGMYENYYLHIFNNTRRIIAQCDASGERGLSGVMRIVQAYGTLMTTDAYGPIPYSSILSGENEVYFEFDSQKDLYKAMLEDLSTAITDISAMGADEIAKLKSFDCWCNGDKDLWVKIANTMKLRMALRLSKRETEAGNAGMNLKAIATEAAQNTLATVNKDILIDKSLENEMWLMFNWGDCGFNANLVTIMSGTKDPRQPLYMTLNTGDIKNEAGTTTVAANSQYLGIRFASGLPAKPNSWGNFSGWIQGNNGSSYSMPLPIMKAAEAYFLLAEAKLRWDIGSESVKNLYENGIRVSMTNELAYRGAYAGIKEYPEGAVDAYINGTSTQIDYTDPIKAELSTPAVNKLSVKWDESASNEEKLERIITQKWLALFPLSTEGWAEQRRTGYPRFFPAFVNESNGAVNTEEGVRRVIYSSQAYDANAKGVEGGIKLLDEENSSKFGISGDKGGTHLWWDNADKGNF
# Key:
# Assay in all cases: glycan array binding signal (z-score within array); higher = stronger binding
# Conditions in all cases: glycan notation: IUPAC condensed, linker removed
# [1] = target: Fuc(a1-2)[Gal(a1-3)]Gal(b1-4)GlcNAc(b1-2)Man(a1-3)[Fuc(a1-2)[Gal(a1-3)]Gal(b1-4)GlcNAc(b1-2)Man(a1-6)]Man(b1-4)GlcNAc(b1-4)[Fuc(a1-6)]GlcNAc
# How it was run: (§1)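 From the Consortium for Functional Glycomics database, 3228 arrays were curated, keeping only those whose protein sequence was available. Binding is given as a within-array Z-score averaged across arrays sharing a protein sequence and across linkers. Negative Z-scores can be read as non-binding.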
# [2] = target: Fuc(a1-2)[Gal(a1-3)]Gal(b1-4)GlcNAc(b1-3)GalNAc
# How it was run: as §1
# [3] = target: Fuc(a1-2)[Gal(a1-3)]Gal(b1-4)GlcNAc(b1-3)[Fuc(a1-2)[Gal(a1-3)]Gal(b1-4)GlcNAc(b1-6)]GalNAc
# How it was run: as §1
# [4] = target: Fuc(a1-2)[Gal(a1-3)]Gal(b1-4)GlcNAc(b1-6)GalNAc
# How it was run: as §1
# [5] = target: Fuc(a1-2)[Gal(a1-3)]Gal(b1-4)[Fuc(a1-3)]Glc
# How it was run: as §1
# [6] = target: Fuc(a1-2)[Gal(a1-3)]Gal(b1-4)[Fuc(a1-3)]GlcNAc
# How it was run: as §1
# [7] = target: Fuc(a1-2)[Gal(a1-3)]Gal(b1-4)[Fuc(a1-3)]GlcNAc(b1-3)GalNAc
# How it was run: as §1
# [8] = target: Fuc(a1-2)[Gal(a1-4)]Gal(b1-4)GlcNAc
# How it was run: as §1
# [9] = target: Fuc(a1-2)[GalNAc(a1-3)]Gal
# How it was run: as §1
# [10] = target: Fuc(a1-2)[GalNAc(a1-3)]Gal(b1-3)GalNAc(a1-3)[Fuc(a1-2)]Gal(b1-4)GlcNAc
# How it was run: as §1
# [11] = target: Fuc(a1-2)[GalNAc(a1-3)]Gal(b1-3)GalNAc(b1-3)Gal(a1-4)Gal(b1-4)Glc
# How it was run: as §1
# [12] = target: Fuc(a1-2)[GalNAc(a1-3)]Gal(b1-3)GlcNAc
# How it was run: as §1
# [13] = target: Fuc(a1-2)[GalNAc(a1-3)]Gal(b1-3)GlcNAc(b1-2)Man(a1-3)[Fuc(a1-2)[GalNAc(a1-3)]Gal(b1-3)GlcNAc(b1-2)Man(a1-6)]Man(b1-4)GlcNAc(b1-4)GlcNAc
# How it was run: as §1
# [14] = target: Fuc(a1-2)[GalNAc(a1-3)]Gal(b1-3)GlcNAc(b1-2)Man(a1-3)[Fuc(a1-2)[GalNAc(a1-3)]Gal(b1-3)GlcNAc(b1-2)Man(a1-6)]Man(b1-4)GlcNAc(b1-4)[Fuc(a1-6)]GlcNAc
# How it was run: as §1
# [15] = target: Fuc(a1-2)[GalNAc(a1-3)]Gal(b1-3)GlcNAc(b1-3)GalNAc
# How it was run: as §1
# [16] = target: Fuc(a1-2)[GalNAc(a1-3)]Gal(b1-3)GlcNAc(b1-6)GalNAc
# How it was run: as §1
# [17] = target: Fuc(a1-2)[GalNAc(a1-3)]Gal(b1-4)Glc
# How it was run: as §1
# [18] = target: Fuc(a1-2)[GalNAc(a1-3)]Gal(b1-4)GlcNAc
# How it was run: as §1
# [19] = target: Fuc(a1-2)[GalNAc(a1-3)]Gal(b1-4)GlcNAc(b1-2)Man
# How it was run: as §1
# [20] = target: Fuc(a1-2)[GalNAc(a1-3)]Gal(b1-4)GlcNAc(b1-2)Man(a1-3)[Fuc(a1-2)[GalNAc(a1-3)]Gal(b1-4)GlcNAc(b1-2)Man(a1-6)]Man(b1-4)GlcNAc(b1-4)GlcNAc
# How it was run: as §1
# [21] = target: Fuc(a1-2)[GalNAc(a1-3)]Gal(b1-4)GlcNAc(b1-2)Man(a1-3)[Fuc(a1-2)[GalNAc(a1-3)]Gal(b1-4)GlcNAc(b1-2)Man(a1-6)]Man(b1-4)GlcNAc(b1-4)[Fuc(a1-6)]GlcNAc
# How it was run: as §1
# [22] = target: Fuc(a1-2)[GalNAc(a1-3)]Gal(b1-4)GlcNAc(b1-3)Gal(b1-4)GlcNAc
# How it was run: as §1
# [23] = target: Fuc(a1-2)[GalNAc(a1-3)]Gal(b1-4)GlcNAc(b1-3)Gal(b1-4)GlcNAc(b1-3)Gal(b1-4)GlcNAc
# How it was run: as §1
# [24] = target: Fuc(a1-2)[GalNAc(a1-3)]Gal(b1-4)GlcNAc(b1-3)GalNAc
# How it was run: as §1
# [25] = target: Fuc(a1-2)[GalNAc(a1-3)]Gal(b1-4)GlcNAc(b1-3)[Fuc(a1-2)[GalNAc(a1-3)]Gal(b1-4)GlcNAc(b1-6)]GalNAc
# How it was run: as §1
# [26] = target: Fuc(a1-2)[GalNAc(a1-3)]Gal(b1-4)GlcNAc(b1-6)GalNAc
# How it was run: as §1
# [27] = target: Fuc(a1-2)[GalNAc(a1-3)]Gal(b1-4)[Fuc(a1-3)]GlcNAc
# How it was run: as §1
# [28] = target: Fuc(a1-2)[GalNAc(a1-3)]Gal(b1-4)[Fuc(a1-3)]GlcNAc(b1-3)GalNAc
# How it was run: as §1
# [29] = target: Fuc(a1-2)[GalNAc(a1-4)]Gal(b1-4)GlcNAc
# How it was run: as §1
# [30] = target: Fuc(a1-2)[GalNAc(b1-3)]Gal
# How it was run: as §1
binder,measurement,setting,value
B1,glycan array binding signal (z-score),[1],-0.882
same,glycan array binding signal (z-score),[2],-0.837
same,glycan array binding signal (z-score),[3],0.034
same,glycan array binding signal (z-score),[4],-1.37
same,glycan array binding signal (z-score),[5],-0.863
same,glycan array binding signal (z-score),[6],-0.181
same,glycan array binding signal (z-score),[7],1.22
same,glycan array binding signal (z-score),[8],0.118
same,glycan array binding signal (z-score),[9],0.659
same,glycan array binding signal (z-score),[10],-0.514
same,glycan array binding signal (z-score),[11],-0.726
same,glycan array binding signal (z-score),[12],-0.317
same,glycan array binding signal (z-score),[13],0.967
same,glycan array binding signal (z-score),[14],0.144
same,glycan array binding signal (z-score),[15],-0.049
same,glycan array binding signal (z-score),[16],-0.731
same,glycan array binding signal (z-score),[17],-0.623
same,glycan array binding signal (z-score),[18],-0.373
same,glycan array binding signal (z-score),[19],0.088
same,glycan array binding signal (z-score),[20],0.159
same,glycan array binding signal (z-score),[21],0.209
same,glycan array binding signal (z-score),[22],0.151
same,glycan array binding signal (z-score),[23],-0.922
same,glycan array binding signal (z-score),[24],0.129
same,glycan array binding signal (z-score),[25],-0.774
same,glycan array binding signal (z-score),[26],-0.23
same,glycan array binding signal (z-score),[27],0.893
same,glycan array binding signal (z-score),[28],1.21
same,glycan array binding signal (z-score),[29],-1.16
same,glycan array binding signal (z-score),[30],-0.987

# Reformatted: entries from further up
binder	measurement	setting	value
B1	glycan array binding signal (z-score)	[23]	-0.922
same	glycan array binding signal (z-score)	[24]	0.129
